Assay results: US20240315219A1, “ANIMAL MODEL FOR DISEASES ASSOCIATED WITH ABSENCE OR REDUCTION OF SOCIAL DOMINANCE, AND PHARMACEUTICAL COMPOSITION FOR PREVENTING OR TREATING DISEASES” (ADEL, Inc., priority 2021, published 2024)
For at least one compound, name, drawing or mass did not settle the structure.

Experiments:
AREG promoter = AREG promoter luciferase assay; assay type: cell-based; settings: cells expressing CRTC3, treated with FSK
astrocytes = test: Whole transcript profiling (mouse cDNA microarray) of astrocytes treated with FSK; assay type: cell-based; settings: 25 μM FSK, 2 hours
AREG = test: qRT-PCR of AREG expression in primary astrocytes treated with forskolin; assay type: cell-based, mouse; settings: 25 μM FSK

With `C=C[C@@]1(C)CC(=O)[C@]2(O)[C@@]3(C)[C@@H](O)CCC(C)(C)[C@@H]3[C@H](O)[C@H](OC(C)=O)[C@@]2(C)O1` [FSK, forskolin] the “luciferase activity driven by AREG promoter” value (AREG promoter) was “activated to a greater extent”, the “gene expression fold change (microarray)” value (astrocytes; astrocytes of CRTC3 KO mice) was “not in the CRTC3 KO mice” and the “gene expression fold change (microarray)” value (astrocytes; astrocytes of WT mice) was “increased expression of most genes”. The “expression level of AREG” value (AREG; primary astrocytes of CRTC3 KO mice) was “did not exhibit an increased expression level of AREG” and the “expression level of AREG” value (AREG; primary astrocytes of WT mice) was “increased expression level of AREG”.
